Literature values as cited in patent publication US20090081206A1, “METHOD AND PHARMACEUTICAL COMPOSITION FOR INHIBITING PREMATURE RAPTURE OF FETAL MEMBRANES, RIPENING OF UTERINE CERVIX AND PRETERM LABOR IN MAMMALS” (priority 1997, published 2009).
At least one structure is not confirmed: it was looked up by name or label, or the drawing left a doubt.

Conditions: vaginal PGE2 versus placebo, meta-analysis

CCCCC[C@H](O)/C=C/[C@H]1[C@H](O)CC(=O)[C@@H]1C/C=C\CCCC(=O)O [PGE2, prostaglandin E2]
failed induction, typical odds ratio versus placebo: 0.14 [0.09-0.22]
